Source: PubChem BioAssay AID1053133 (Broad Institute, 2014).

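Vaccinia-infected cells with a two-color viral stage reporter; Venus fluorescence read on a plate reader; the cell line is not named here; timing not stated here.
The test concentration is not given here.
Percent change in Venus reporter signal; lower (more negative) values mean stronger inhibition of that viral stage.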

Values are in %.
The controls that fix the scale are not given here.
Common to all entries: measured here: Venus reporter, other viral stage.
Part of the compounds only, not a random draw; the main read-out is not listed here.

structure,activity change (Venus) (%)
COc1ccc(CN(C)C[C@H]2OCCCC[C@H](C)Oc3ccc(NC(=O)NC4CCCCC4)cc3C(=O)N([C@@H](C)CO)C[C@@H]2C)cc1,-63.09
C[C@H]1CCCCO[C@H](CN(C)Cc2ccc3c(c2)OCO3)[C@@H](C)CN([C@@H](C)CO)C(=O)c2cc(NC(=O)NC3CCCCC3)ccc2O1,-57.94
C[C@H]1CN([C@@H](C)CO)C(=O)c2c(c3ccccc3n2C)-c2ccccc2CO[C@@H]1CN(C)C(=O)Oc1ccccc1,-53.38
Cc1noc(C)c1S(=O)(=O)Nc1ccc2c(c1)CC(=O)N([C@H](C)CO)C[C@H](C)[C@@H](CN(C)Cc1ccc(C(F)(F)F)cc1)O2,-41.94
COc1ccccc1C#Cc1ccc([C@@H]2[C@H]3CN(C(=O)C4CCCC4)CCCCN3[C@H]2CO)cc1,-54.62
N#Cc1ccc(-c2ccc(C3[C@@H]4CN(C(=O)c5ccccn5)C[C@H]3N4)cc2)cc1 (stereo partly specified),-79.33
COc1ccccc1C#Cc1ccc2c(c1)O[C@@H](CN(C)Cc1cccnc1)[C@@H](C)CN([C@@H](C)CO)S2(=O)=O,-48.59
COc1cccc(S(=O)(=O)N(C)C[C@@H]2Oc3ncc(C#Cc4cccc(F)c4)cc3C(=O)N([C@H](C)CO)C[C@@H]2C)c1,-22.94
COc1ccc(CNC(=O)N(C)C[C@@H]2OCc3ccccc3-c3c(n(C)c4ccccc34)C(=O)N([C@@H](C)CO)C[C@H]2C)cc1,-56.22
CCCNC(=O)N1CC[C@@H]2[C@@H](CO)N(C)c3ccc(-c4ccc(F)cc4)cc3[C@@H]21,-46.72
C[C@@H]1CCCCO[C@H](CN(C)Cc2ccc(Cl)c(Cl)c2)[C@@H](C)CN([C@@H](C)CO)C(=O)c2cc(NC(=O)CCC(F)(F)F)ccc2O1,-77.33
COc1ccc(S(=O)(=O)N(C)C[C@H]2OCCCC[C@@H](C)Oc3ccc(NS(=O)(=O)c4ccccc4)cc3C(=O)N([C@@H](C)CO)C[C@H]2C)cc1,-26.61
C[C@@H]1CN([C@@H](C)CO)C(=O)c2cccc(NC(=O)Nc3ccc(C(F)(F)F)cc3)c2O[C@@H]1CN(C)CC1CCCCC1,-85.05
C[C@@H]1CN([C@H](C)CO)C(=O)c2cc(NS(=O)(=O)c3ccccc3)ccc2O[C@@H]1CN(C)Cc1ccc(Cl)c(Cl)c1,-29.33
C[C@@H]1CCCCO[C@H](CN(C)Cc2ccc3c(c2)OCO3)[C@H](C)CN([C@@H](C)CO)C(=O)c2cc(NC(=O)c3ccccc3)ccc2O1,-31.67
C[C@@H]1CN([C@@H](C)CO)C(=O)c2cc(C3=CCCCC3)cnc2O[C@H]1CN(C)Cc1ccccc1F,-49.37
C[C@@H]1CN([C@H](C)CO)C(=O)c2cc(NC(=O)Cc3ccccc3)ccc2O[C@@H](C)CCCCO[C@@H]1CN(C)Cc1ccc(Cl)c(Cl)c1,-33.63
C[C@H]1CN([C@@H](C)CO)C(=O)c2c(c3ccccc3n2C)-c2ccccc2CO[C@H]1CN(C)S(=O)(=O)c1ccc(C#N)cc1,-62.52
C[C@@H]1CN([C@@H](C)CO)C(=O)c2cc(NC(=O)NC3CCCCC3)ccc2O[C@@H](C)CCCCO[C@H]1CN(C)C(=O)C1CCCCC1,-28.38
C[C@@H]1CN([C@@H](C)CO)C(=O)c2c(c3ccccc3n2C)-c2ccccc2CO[C@H]1CN(C)C(=O)[C@@H](Cc1ccccc1)N(C)C,-31.8
O=C(c1cccc(F)c1)N1CCCCN2[C@@H](CO)[C@@H](c3ccc(-c4ccc(F)cc4)cc3)[C@@H]2C1,-61.45
C[C@H](O)C#Cc1ccc2c(c1)O[C@H](CN(C)Cc1ccc(-c3ccccc3)cc1)[C@H](C)CN([C@@H](C)CO)S2(=O)=O,-49.35
CC(C)CC#Cc1ccc([C@H]2[C@@H](CO)N3CCCCN(C(=O)c4ccc5c(c4)OCO5)C[C@@H]23)cc1,-44.65
CC(=O)N(C[C@@H]1N[C@@H](CO)[C@@H]1c1ccc(-c2ccccc2)cc1)C(C)C,-35.49
C[C@H]1CCCCO[C@@H](CN(C)CC2CCCCC2)[C@@H](C)CN([C@@H](C)CO)C(=O)c2cc(NS(=O)(=O)c3ccccc3)ccc2O1,-62.66
COc1ccccc1C#Cc1ccc([C@@H]2[C@H](CO)N3CCCCN(C(=O)C4CCC4)C[C@@H]23)cc1,-59
C[C@H]1CN([C@@H](C)CO)S(=O)(=O)c2ccc(/C=C/c3ccccc3)cc2O[C@@H]1CN(C)C(=O)NC1CCCC1,-49.89
C[C@@H]1CN([C@@H](C)CO)S(=O)(=O)c2ccc(C#CCC3CCCC3)cc2O[C@H]1CN(C)C(=O)CC1CC1,-41.14
CC(C)CC#Cc1ccc([C@H]2[C@H]3CN(S(=O)(=O)c4cccc(F)c4)CC(=O)N3[C@H]2CO)cc1,-65.91
Cc1ccc(S(=O)(=O)N2CC[C@@H]3[C@H]2c2cc(C#Cc4ccc(F)cc4)ccc2N[C@@H]3CO)cc1,-31.74
C[C@H]1CN([C@@H](C)CO)C(=O)c2ccccc2-c2ccccc2CO[C@H]1CN(C)S(=O)(=O)c1ccc([N+](=O)[O-])cc1,-33.1
Cc1noc(C)c1S(=O)(=O)Nc1ccc2c(c1)C(=O)N([C@@H](C)CO)C[C@H](C)[C@@H](CN(C)Cc1ccc3c(c1)OCO3)OCCCC[C@@H](C)O2,-60.13
C[C@@H]1CN([C@H](C)CO)S(=O)(=O)c2ccc(/C=C/c3ccccc3)cc2O[C@H]1CN(C)C(=O)Nc1cc(F)ccc1F,-52.59
COc1ccc(NC(=O)N(C)C[C@@H]2Oc3ncc(C#Cc4ccc(C(F)(F)F)cc4)cc3C(=O)N([C@H](C)CO)C[C@@H]2C)cc1,-60.18
COc1ccc(S(=O)(=O)Nc2ccc3c(c2)C(=O)N([C@H](C)CO)C[C@@H](C)[C@H](CN(C)C(=O)Nc2ccc(F)cc2)OCCCC[C@H](C)O3)cc1,-27.92

Some entries from above, unchanged:

{"structure": "C[C@@H]1CN([C@H](C)CO)S(=O)(=O)c2ccc(/C=C/c3ccccc3)cc2O[C@H]1CN(C)C(=O)Nc1cc(F)ccc1F", "activity change (Venus) (%)": "-52.59"}
{"structure": "C[C@H]1CN([C@@H](C)CO)C(=O)c2c(c3ccccc3n2C)-c2ccccc2CO[C@H]1CN(C)S(=O)(=O)c1ccc(C#N)cc1", "activity change (Venus) (%)": "-62.52"}
{"structure": "CCCNC(=O)N1CC[C@@H]2[C@@H](CO)N(C)c3ccc(-c4ccc(F)cc4)cc3[C@@H]21", "activity change (Venus) (%)": "-46.72"}
{"structure": "CC(=O)N(C[C@@H]1N[C@@H](CO)[C@@H]1c1ccc(-c2ccccc2)cc1)C(C)C", "activity change (Venus) (%)": "-35.49"}